Measurements: PubChem BioAssay AID504834 (National Center for Advancing Translational Sciences (NCATS), 2011)
Among all 320,000 compounds or so, about 22,000 (6.9%) were called active. The shares of active, inactive and inconclusive entries below differ from those in the screen. The call rests on the fitted dose curve; in most records, active means well fitted inhibition curve with a large enough effect; inconclusive means small, poorly fitted or top-dose-only effect, or another doubt; inactive means no such curve, though single readings can be large or run the other way. Potencies beside an inconclusive call are fits to weak or partial responses and may not hold up.

Experiment: Primary qHTS for delayed death inhibitors of the malarial parasite plastid, 96 hour incubation
Conditions: P. falciparum luciferase reporter growth; series mostly up to 28.7 µM; activity change, negative = inhibition: at the top concentration
Procedure, shortened: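 P. falciparum expressing integrated firefly luciferase, in erythrocytes at 2% hematocrit, 0.05% parasitemia, incubated with compounds 96 h at 37 C, 5% CO2. Growth inhibition read as loss of luminescence; two-generation exposure targets delayed-death apicoplast inhibitors.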
On the % scale 0 is the no-effect control and ±100 the full control effect; potency means the concentration at half of the fitted maximal effect.

SMILES | Potency | activity change, negative = inhibition
Cc1ccc(-n2c(Cc3cccc4ccccc34)n[nH]c2=S)c(C)c1 | inconclusive: 10.4 µM [inhibitor, single point] | 
CC(=O)N/C(=C\c1ccccc1)C(=O)OCC(=O)N(C)C1CCCCC1 |  | inactive: -8.35%
COc1ccccc1NC(=O)COC(=O)C1CCN(/C=C/C(=O)C(F)(F)F)CC1 |  | inactive: 14.3%
O=C1Cc2cc(S(=O)(=O)N3CCN(c4cccc(Cl)c4)CC3)ccc2N1 | inconclusive: 20.8 µM [inhibitor, partial curve, poor fit] | 
CCC(=O)O[C@@H]1CC(=O)O[C@H](C)CC=CC=C[C@@H](O)[C@H](C)C[C@H](CC=O)[C@H](O[C@H]2O[C@H](C)[C@@H](O[C@H]3C[C@@](C)(O)[C@@H](OC(=O)CC)[C@H](C)O3)[C@H](N(C)C)[C@H]2O)[C@H]1OC | active: 0.828 µM | 
CC(c1nc2scc(-c3ccccc3)c2c(=O)[nH]1)N1CCN(CC(=O)NC2CC2)CC1 (stereo not drawn) | inconclusive: 5.22 µM [inhibitor, partial curve] | 
C=CCn1c(SC2CCOC2=O)nc2sc(C)c(C)c2c1=O (stereo not drawn) | active: 13.1 µM | 
CCCn1c(N)c(C(=O)CSc2nc3ccccc3n2CCC#N)c(=O)n(C)c1=O | inconclusive: 0.657 µM [inhibitor, full curve, poor fit] | 
Cc1ccc(S(=O)(=O)Nc2nc3ccc(S(C)(=O)=O)cc3s2)cc1 | active: 11.7 µM | 
COc1ccc(-c2ccc3c(c2)S(=O)(=O)c2cccc(C(=O)NCc4ccccc4Cl)c2C3=O)cc1OC |  | inactive: 31.3%
O=C(Nc1ccc2c(c1)OCCO2)C1CCCN(S(=O)(=O)c2cccc3nsnc23)C1 (stereo not drawn) |  | inactive: -46%
Cc1nn2c(Nc3ccc(F)cc3)c3c(nc2c1-c1ccccc1)CCC3 | inconclusive: 2.33 µM [inhibitor, single point] | 
CCOc1ccc(-c2nnc3ccc(SCC(=O)Nc4nc5ccc(C)cc5s4)nn23)cc1 | inconclusive: 18.5 µM [inhibitor, single point] | 
CCOC(=O)COc1cc(N)c(Cl)cc1Cl |  | inactive: 30.7%
O=C(CN1CCN(c2ccc(O)cc2)CC1)Nc1cc(S(=O)(=O)N2CCOCC2)ccc1Cl | inconclusive: 7.38 µM [inhibitor, partial curve, poor fit] | 
CC(=O)c1ccc(N/C=C/C(=O)c2ccc(Br)cc2)cc1 | inconclusive: 9.28 µM [inhibitor, partial curve, poor fit] | 
O=C(NCc1ccc(F)cc1)C1CCN(S(=O)(=O)N2CCCC2)CC1 | inconclusive: 18.5 µM [inhibitor, single point] | 
CC(C)CNC(=O)c1ccccc1Oc1ccccc1 | active: 14.7 µM | 

4 entries out of the list, ordered by SMILES length, descending:
SMILES | Potency | activity change, negative = inhibition
CCC(=O)O[C@@H]1CC(=O)O[C@H](C)CC=CC=C[C@@H](O)[C@H](C)C[C@H](CC=O)[C@H](O[C@H]2O[C@H](C)[C@@H](O[C@H]3C[C@@](C)(O)[C@@H](OC(=O)CC)[C@H](C)O3)[C@H](N(C)C)[C@H]2O)[C@H]1OC | active: 0.828 µM | 
O=C(Nc1ccc2c(c1)OCCO2)C1CCCN(S(=O)(=O)c2cccc3nsnc23)C1 (stereo not drawn) |  | inactive: -46%
O=C(NCc1ccc(F)cc1)C1CCN(S(=O)(=O)N2CCCC2)CC1 | inconclusive: 18.5 µM [inhibitor, single point] | 
C=CCn1c(SC2CCOC2=O)nc2sc(C)c(C)c2c1=O (stereo not drawn) | active: 13.1 µM | 
